Source: article PMC8787347
No constants are given. Whether binding was seen depends on the method and setting. In cells and extracts the contact can be indirect. Some entries that bind do so weakly or less than the wild type.

The chains behind the UniProt entries cited, without tags or fusion partners.
UniProt Q9NVP2: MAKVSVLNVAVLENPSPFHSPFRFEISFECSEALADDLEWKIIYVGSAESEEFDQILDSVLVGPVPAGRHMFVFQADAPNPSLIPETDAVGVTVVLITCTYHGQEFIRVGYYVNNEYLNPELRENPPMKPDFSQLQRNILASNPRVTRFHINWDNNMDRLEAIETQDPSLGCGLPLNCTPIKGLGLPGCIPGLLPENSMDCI
UniProt P50750: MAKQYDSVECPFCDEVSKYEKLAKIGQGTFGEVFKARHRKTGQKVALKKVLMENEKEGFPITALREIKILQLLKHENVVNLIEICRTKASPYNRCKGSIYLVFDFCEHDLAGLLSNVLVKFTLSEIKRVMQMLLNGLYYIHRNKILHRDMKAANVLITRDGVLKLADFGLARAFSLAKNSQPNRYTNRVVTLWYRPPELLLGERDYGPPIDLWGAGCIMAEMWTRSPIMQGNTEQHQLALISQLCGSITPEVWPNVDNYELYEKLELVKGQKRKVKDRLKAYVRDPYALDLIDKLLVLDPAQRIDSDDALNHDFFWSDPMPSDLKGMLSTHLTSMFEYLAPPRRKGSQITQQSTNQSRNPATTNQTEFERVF

Molecular target: anti-silencing function 1B (ASF1B) (human (endogenous in MHCC97H and Hep3B)) (UniProt Q9NVP2)
Assay: co-IP; lysates of untreated MHCC97H and Hep3B cells, pre-cleared with protein A/G agarose; immunoprecipitated with anti-ASF1B antibody (CST) or normal rabbit IgG overnight at 4°C; protein A/G agarose beads 1 hour at 4°C; Western blot; Absin IP/Co-IP kit

binding: binds
Substance: CDK9 (from UniProt P50750 1-372)
